# No constants are given. Whether binding was seen depends on the method and setting. Binding can be weak; no strength is given.
# B1: SEQ ID NO 98 (designed binder)
# chain: PLSPPTNLHLEANPDTGVLTVSWERSTTPDITAYYIYTYKSDKTRYLEEVVHADQSSCTFDNLSPGLYYGVGAVATVRPHPTAGPISDTIIP
# B2: SEQ ID NO 99 (designed binder)
# chain: PLSPPTNLHLEANPDTGVLTVSWERSTTPDITHYLIYTYGHHSAGLEEVVHADQSSCTFDNLSPGLGYSVYVNTVAYKTMGPISDTIIP
# B3: SEQ ID NO 101 (designed binder)
# chain: VSDVPRDLEVVAATPTSLLISWDAPAVTVRTYYIMYSLWQHYVTNALQEFTVPGSKSTATISGLKPGVFYGILVYAVSWWSRWPISINYRT
# B4: SEQ ID NO 102 (designed binder)
# chain: VSDVPRDLEVVAATPTSLLISWDAPAVTVRSYYIKYSTCSHYVRSGVGQEFTVPGSKSTATISGLKPGVDYMIDVNAVLSEGRGDPISINYRT
# B5: SEQ ID NO 103 (designed binder)
# chain: VSDVPRDLEVVAATPTSLLISWDAPAVTVRGYTTYSYRDSQEFTVPGSKSTATISGLKPGVIYNILVSAVSEWWKYPISINYRT
# B6: SEQ ID NO 104 (designed binder)
# chain: VSDVPRDLEVVAATPTSLLISWDAPAVTVRYYEIWYESYFYVLWQEFTVPGSKSTATISGLKPGVSYEITVSAVYWHYAYPISINYRT
# B7: SEQ ID NO 105 (designed binder)
# chain: VSDVPRDLEVVAATPTSLLISWDAPAVTVRLYAIMYTAYEYRVMDAKLYQEFTVPGSKSTATISGLKPGVSYYINVAAVYLHRYFYPISINYRT
# B8: SEQ ID NO 106 (designed binder)
# chain: VSDVPRDLEVVAATPTSLLIPWDAPAVTVRGYKIDYVVQTWAYYQEFTVPGSKSTATISGLKPGVSYAITVLAVYRWYYSPISINYRT
# B9: SEQ ID NO 107 (designed binder)
# chain: VSDVPRDLEVVAATPTSLLISWDAPAVTVRGYGIDYGQRDYQQGSQQEFTVPGSKSTATISGLKPGVQYDIYVGAVETYVYARPISINYRT
# B10: SEQ ID NO 108 (designed binder)
# chain: VSDVPRDLEVVAATPTSLLISDAPAVTVRSYYIYYYDYDGGSVQEFTVPGSKSTATISGLKPGVSYVISVAAVWYAAYRYPISINYRT
# B11: SEQ ID NO 109 (designed binder)
# chain: VSDVPRDLEVVAATPTSLLISWDAPAVTVRNYLIDYGYKNYSIAGQEFTVPGSKSIATISGLKPGVFYAILVAAVRYFWYFPISINYRT
# B12: SEQ ID NO 110 (designed binder)
# chain: ISDVPRDLEVVAATPTSLLISWDAPAVTVRGYSIHYYYYSFTGQEFTVPGSKSTATISGLKPGVSYWIRVWAVRFWEYLPPISINYRT
# B13: SEQ ID NO 111 (designed binder)
# chain: VSDVPRDLEVVAATPTSLLISWDAPAVTVRGYDIAYGVNYYYYSYQEFTVPGSKSTATISGLKPGVVYGIYVAAVRYWHYLFPISINYRT
# B14: SEQ ID NO 112 (designed binder)
# chain: VSDVPRDLEVVAATPTSLLISWDAPAVTVRIYSIGSQEFTVPGSKSTATISGLKPGVWYWIYVAAVRAWSYWHPISINYRT
# B15: SEQ ID NO 113 (designed binder)
# chain: VSDVPRDLEVVAATPTSLLISWDAPAVTVREYYIYYGSSQETEGQEFTVPGSKSTATISGLKPGVNYSIGVAAVQNIYTYYPISINYRT
# B16: SEQ ID NO 114 (designed binder)
# chain: VSDVPRDLEVVAATPTSLLISWDAPAVTVRSYEIGYEYIYLQYSQEFTVPGSKSTATISGLKPGVMYSIVVYAVNKVYSYFPISINYRT
# B17: SEQ ID NO 115 (designed binder)
# chain: VSDVPRDLEVVAATPTSLLISWDAPAVTVRTYSISYFDYLHLYSQEFTVQGSKSTATISGLKPGVYYAIYVWAVGWWLADPISINYRT
# B18: SEQ ID NO 116 (designed binder)
# chain: VSDVPRDLGVVAATPTSLLISWDAPAVTVRKYMISYTLMGHLHYGASQEFTVPGSKSTATISGLKPGVVYYGIYVLAVSEYQVASPISINYRT
# B19: SEQ ID NO 117 (designed binder)
# chain: VSDVPRDLEVVAATPTSLLISWDAPAVTVRSYNISYSKYHYSPAYQEFTVPGSKSTATISGLKPGVQYYISVSAVHAHNVAGPISINYRT
# B20: SEQ ID NO 119 (designed binder)
# chain: VSDVPRDLEVVAATPTSLLISWDAPAVTVRKYQISYGYYSNTDQEFTVPGSKSTATISGLKPGVDYWIYVSAVAWQADQGPISINYRT
# B21: SEQ ID NO 120 (designed binder)
# chain: VSDVPRDLEVVAATPTSLLISWDAPAVTVRTYSISYRYGKWSGQEFTVPGSKSTATISGLKPGVYYDIGVTAVTSVVSGPISINYRT
# B22: SEQ ID NO 121 (designed binder)
# chain: VSDVPRDLEVVAATPTSLLISWDAPAVTVRQVYVIAYRYYVRSWGQEFTVPGSKSTATISGLKPGVYYSINVLAVYYRTWRPISINYRT
# B23: SEQ ID NO 122 (designed binder)
# chain: VSDVPRDLEVVAATPTSLLISWDAPAVTVRSYDISYNGMAYTKTLVQEFTVPGSKSTATISGLKPGVNYLIDVIAVSFRRWWSPISINYRT
# B24: SEQ ID NO 123 (designed binder)
# chain: VSDVPRDLEVVAATPTSLLISWDAPAVTVRNYAISYQDDSPYVQEFTVPGSKSTATISGLKPGVNYDISVTAVGWWRSGMPISINYRT
# B25: SEQ ID NO 124 (designed binder)
# chain: VSDVPRDLEVVAATPTSLLISWDAPAVTVRTYDIGYSSFNSSTLYVQEFTVPGSKSTATISGLKPGVNYDISVTAVRLQESQRPISINYRT
# B26: SEQ ID NO 125 (designed binder)
# chain: VSDVPRDLEVVAATPTSLLISWDAPAVTVREYDIYYVDSYYYFEGQYPHQEFTVPGSKSTATISDLKPGVTYDIGVKAVYNGSRIVEPISINYRT
# B27: SEQ ID NO 126 (designed binder)
# chain: VSDVPRDLEVVAATPTSLLISWDAPAVTVRVYEISYYSSESYLPGQEFTVPGSKSTATISGLKPGVTYDIHVSAVAYRGASPISINYRT
# B28: SEQ ID NO 127 (designed binder)
# chain: VSDVPRDLEVVAATPTSLLISWDAPAVTVREYLIGYAVTEYGDRQEFTVPGSKSTATISGLKPGVLYDIRVLAVYARWPKPISINYRT
# B29: SEQ ID NO 128 (designed binder)
# chain: VSDVPRDLEVVAATPTSLPISWDAPAVTVRYYSIWYYHYYPYAQEFTVPGSKSTATISSLKQGVRYFIDVLAVAWVRWAYPISINYRT
# Target: lysozyme
# Assay: cradle library selection hit
row,Binder,binding
1,B1,binds
2,B2,binds
3,B3,binds
4,B4,binds
5,B5,binds
6,B6,binds
7,B7,binds
8,B8,binds
9,B9,binds
10,B10,binds
11,B11,binds
12,B12,binds
13,B13,binds
14,B14,binds
15,B15,binds
16,B16,binds
17,B17,binds
18,B18,binds
19,B19,binds
20,B20,binds
21,B21,binds
22,B22,binds
23,B23,binds
24,B24,binds
25,B25,binds
26,B26,binds
27,B27,binds
28,B28,binds
29,B29,binds
